System: patients with T1D
Experiment: Blood pressure, arterial stiffness, HRV and adrenergic mediators in normotensive T1D patients under clamped euglycemia and hyperglycemia
Type: in vivo, human
Conditions: both glycemic conditions; 8 weeks of 25 mg daily
Procedure: Blood pressure, arterial stiffness, heart rate variability (HRV) and circulating adrenergic mediators were measured during clamped euglycemia and hyperglycemia in 40 normotensive patients with T1D. Studies were repeated after 8 weeks of empagliflozin (25 mg daily).
Augmentation index (Alx) for the radial and carotid arteries as well as a derived aortic Alx and carotid, radial and femoral pulse wave velocities (PWV) are measured for assessment of arterial stiffness using a SphygmoCor® System (AtCor Medical Inc., Itasca, Ill.).

OC[C@H]1O[C@@H](c2ccc(Cl)c(Cc3ccc(O[C@H]4CCOC4)cc3)c2)[C@H](O)[C@@H](O)[C@@H]1O [empagliflozin, 1-chloro-4-(β-D-glucopyranos-1-yl)-2-[4-((S)-tetrahydrofuran-3-yloxy)-benzyl]-benzene]
remained unchanged: heart rate variability (HRV) | plasma adrenaline | plasma noradrenaline

From patent US11813275B2, “Pharmaceutical composition, methods for treating and uses thereof” (Boehringer Ingelheim International GmbH, priority 2013, dated 2023)
